Here are results for 69 compounds from the supplement of paper PMC7580552.

Molecules are shown by their SMILES. Structures can show the parent of a compound that is named as a salt. The list shows a part of the results. Baselines shift from plate to plate; read single values as rough.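 The strain is a K-12 laboratory model grown without shaking in 96-well plates, and biofilm is the crystal violet stain retained on the wells, read as absorbance. Drugs were picked as candidate specific biofilm blockers when they cut staining strongly but slowed free-floating growth by less than 70%.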

The experiment deals with Escherichia coli W3110. The experiment can be described thus: biofilm formation (crystal violet staining) relative to untreated control; higher = more biofilm. As to conditions: 10 µM; 20-24 h; 30 °C; TB.
As to `CN(C)CCn1nnnc1SCC1=C(C(=O)O)N2C(=O)[C@@H](NC(=O)Cc3csc(N)n3)[C@H]2SC1` [Cefotiam hydrochloride], the biofilm formation came to 12%. Take `CC(=O)N[C@@H](CS)C(=O)O` [Acetylcysteine]: the biofilm formation was determined as 100%. As to `CC(=O)O[C@H]1C[C@@]2(C)[C@@H](C[C@@H](O)[C@H]3[C@@]4(C)CC[C@@H](O)[C@@H](C)[C@@H]4CC[C@@]32C)/C1=C(\CCC=C(C)C)C(=O)O` [Fusidic acid sodium salt], the biofilm formation came to 115%. `CCN(CC)CCOC(=O)c1ccc(N)cc1` [Procaine hydrochloride] displayed a biofilm formation of 98%. For `CC[C@H](C)C(=O)O[C@H]1C[C@@H](C)C=C2C=C[C@H](C)[C@H](CC[C@@H]3C[C@@H](O)CC(=O)O3)[C@H]21` [Lovastatin], the biofilm formation stood at 69%.

The compound `Cc1c(C)c2c(c(C)c1O)CCC(C)(C(=O)O)O2` (centres undefined) [Trolox] came in with a biofilm formation of 91%. Consider `CCCCNc1cc(C(=O)O)cc(S(N)(=O)=O)c1Oc1ccccc1` [Bumetanide], for which the biofilm formation came to 43%. `CNC(=O)c1c(I)c(C(=O)NCC(=O)Nc2c(I)c(C(=O)O)c(I)c(C(=O)NCCO)c2I)c(I)c(N(C)C(C)=O)c1I` [Ioxaglic acid] returned a biofilm formation of 74%. With `CC(=O)Oc1ccccc1C(=O)Oc1ccccc1C(=O)O` [Acetylsalicylsalicylic acid] the figure was 50%; with `CC(C)n1c(/C=C/C(O)CC(O)CC(=O)O)c(-c2ccc(F)cc2)c2ccccc21` (centres undefined) [Fluvastatin sodium salt], 71%.

In turn, `NC(=O)OCC(COC(N)=O)c1ccccc1` [Felbamate] had a biofilm formation of 74%.

The compound `C[C@H]1NC(=O)NC1=O` [Methylhydantoin-5-(D)] yielded a biofilm formation of 61%.

`Cc1ccnc(NS(=O)(=O)c2ccc(N)cc2)n1` [Sulfamerazine] showed a biofilm formation of 35%. Regarding `N=C(N)NCc1cccc(I)c1` [Iobenguane sulfate], the biofilm formation turned out to be 89%. Regarding `Nc1ccc(S(=O)(=O)Nc2cnc3ccccc3n2)cc1` [Sulfaquinoxaline sodium salt], the biofilm formation amounted to 53%.

In the case of `CNC[C@H](O)[C@@H](O)[C@H](O)[C@H](O)CO` [Meglumine], the biofilm formation amounted to 70%. Compound `NCCCC(O)(P(=O)(O)O)P(=O)(O)O` [Alendronate sodium] showed a biofilm formation of 95%. `NS(=O)(=O)c1cc(Cl)c(Cl)c(S(N)(=O)=O)c1` [Dichlorphenamide] yielded a biofilm formation of 82%. Regarding `CCCCCNC(=N)N/N=C/c1c[nH]c2ccc(OC)cc12` [Tegaserod maleate], the biofilm formation was determined as 41%.

On to `CCN1CCCC(OC(=O)C(c2ccccc2)c2ccccc2)C1` (centres undefined) [Piperidolate hydrochloride], for which the biofilm formation was found to be 65%. `CN(C)CCCSC(=N)N` [Dimaprit dihydrochloride] had a biofilm formation of 72%.

As to `C[C@H](Cc1cc2c(c(C(N)=O)c1)N(CCCO)CC2)NCCOc1ccccc1OCC(F)(F)F` [Silodosin], the biofilm formation was determined as 83%. `Cc1onc(-c2c(F)cccc2Cl)c1C(=O)N[C@@H]1C(=O)N2[C@@H]1SC(C)(C)[C@@H]2C(=O)O` [Flucloxacillin sodium] yielded a biofilm formation of 81%. In turn, `O=C(NCCN1CCOCC1)c1ccc(Cl)cc1` [Moclobemide] registered a biofilm formation of 51%. For `CC(=O)CCCCn1c(=O)c2c(ncn2C)n(C)c1=O` [Pentoxifylline] the value was 63%. `CN1C(=O)OC(C)(C)C1=O` [Trimethadione]: the biofilm formation worked out at 76%. With `CN(C/C=C/c1ccccc1)Cc1cccc2ccccc12` [Naftifine hydrochloride], the biofilm formation is 64%.

In the case of `OCCN1CCN(CCCN2c3ccccc3C=Cc3ccccc32)CC1` [Opipramol dihydrochloride], the biofilm formation came out at 59%. `CC(C)NC[C@H](O)COc1cccc2ccccc12` [(S)-propranolol hydrochloride]: the biofilm formation was found to be 88%. In turn, `C[C@@H](O)[C@H]1C(=O)N2C(C(=O)O)=C(S[C@@H]3CN[C@H](C(=O)N(C)C)C3)[C@H](C)[C@H]12` [Meropenem] had a biofilm formation of 11%.

Compound `CC(=O)O[C@H]1C[C@@H]2CC[C@@H]3[C@H](CC[C@@]4(C)[C@H]3C[C@H]([N+]3(C)CCCCC3)[C@@H]4OC(C)=O)[C@@]2(C)C[C@@H]1N1CCCCC1` [Vecuronium bromide] had a biofilm formation of 68%.

`C[C@]12C=CC(=O)C=C1CC[C@H]1[C@@H]3C[C@@H](O)[C@](O)(C(=O)CO)[C@@]3(C)C[C@H](O)[C@@]12F` [Triamcinolone]: the biofilm formation worked out at 67%. In the case of `CC1(C)O[C@@H]2C[C@H]3[C@@H]4CCC5=CC(=O)CC[C@]5(C)[C@@]4(F)[C@@H](O)C[C@]3(C)[C@]2(C(=O)CCl)O1` [Halcinonide], the biofilm formation was found to be 70%. For `CCN(CC)C(=O)/C(C#N)=C/c1cc(O)c(O)c([N+](=O)[O-])c1` [Entacapone], the biofilm formation is 85%.

`OC(c1cc(C(F)(F)F)nc2c(C(F)(F)F)cccc12)C1CCCCN1` (centres undefined) [Mefloquine hydrochloride]: the biofilm formation was 46%. As for `CNCCCC12CCC(c3ccccc31)c1ccccc12` [Maprotiline hydrochloride], the biofilm formation is 61%.

`C[C@@H]1C[C@H]2[C@@H]3C[C@H](F)C4=CC(=O)C=C[C@]4(C)[C@@]3(Cl)[C@@H](O)C[C@]2(C)[C@H]1C(=O)COC(=O)C(C)(C)C` [Clocortolone pivalate] came in with a biofilm formation of 103%. For `Nc1nc2c(ncn2COCCO)c(=O)[nH]1` [Acyclovir], the biofilm formation came out at 54%. For `CCCCCN(CCCCC)C(=O)C(CCC(=O)O)NC(=O)c1ccc(Cl)c(Cl)c1` (centres undefined) [Lorglumide sodium salt] the value was 42%; for `CC(C)(C)NC(=O)[C@@H]1C[C@@H]2CCCC[C@@H]2CN1C[C@@H](O)[C@H](Cc1ccccc1)NC(=O)[C@H](CC(N)=O)NC(=O)c1ccc2ccccc2n1` [Saquinavir mesylate], 106%; for `COc1ncnc(NS(=O)(=O)c2ccc(N)cc2)c1OC` [Sulfadoxine], 39%. For `CC(=O)OCC(=O)[C@@]1(O)[C@H](C)C[C@H]2[C@@H]3CCC4=CC(=O)C=C[C@]4(C)[C@@]3(F)[C@@H](O)C[C@@]21C` [Dexamethasone acetate] the value was 85%; for `COc1c(N2C[C@@H]3CCCN[C@@H]3C2)c(F)cc2c(=O)c(C(=O)O)cn(C3CC3)c12` [Moxifloxacin], 23%. Take `COc1ccc(C(=O)c2ccccc2)c(O)c1` [Oxybenzone]: the biofilm formation is 55%.

In turn, `COc1ccc(C(=O)CC(=O)c2ccc(C(C)(C)C)cc2)cc1` [Avobenzone] returned a biofilm formation of 68%. `CCOC(=O)C1=C(C)NC(C)=C(C(=O)OCC)C1c1ccccc1/C=C/C(=O)OC(C)(C)C` [Lacidipine] registered a biofilm formation of 83%. `CCOc1cc(CC(=O)N[C@@H](CC(C)C)c2ccccc2N2CCCCC2)ccc1C(=O)O` [Repaglinide] showed a biofilm formation of 66%.

Regarding `C#C[C@]1(O)CC[C@H]2[C@@H]3CCc4cc(O)ccc4[C@H]3CC[C@@]21C` [Ethinylestradiol], the biofilm formation amounted to 77%.

On to `CCCCN(CCCC)CCC(O)c1cc2c(Cl)cc(Cl)cc2c2cc(C(F)(F)F)ccc12` (centres undefined) [Halofantrine hydrochloride], for which the biofilm formation is 78%. With `CC(C(=O)O)c1cccc(C(=O)c2ccccc2)c1` (centres undefined) [Ketoprofen] the figure was 76%; with `CCCC1O[C@@H]2C[C@H]3[C@@H]4CCC5=CC(=O)C=C[C@]5(C)[C@H]4[C@@H](O)C[C@]3(C)[C@]2(C(=O)CO)O1` (some centres undefined) [Budesonide], 87%; with `CC1(C)S[C@@H]2[C@H](NC(=O)[C@H](C(=O)O)c3ccsc3)C(=O)N2[C@H]1C(=O)O` [Ticarcillin sodium], 54%. On to `Cc1cc(NS(=O)(=O)c2ccc(N)cc2)no1` [Sulfamethoxazole], for which the biofilm formation came out at 28%. `CN[C@@H]1[C@@H](O)[C@@H](O[C@@H]2[C@@H](O)[C@H](O[C@H]3OC(CN)=CC[C@H]3N)[C@@H](N)C[C@H]2N)OC[C@]1(C)O` [Sisomicin sulfate] showed a biofilm formation of 61%. With `O=C1CN(/N=C/c2ccc(-c3ccc([N+](=O)[O-])cc3)o2)C(=O)N1` [Dantrolene sodium salt], the biofilm formation came to 82%. As for `CCOC(=O)n1ccn(C)c1=S` [Carbimazole], the biofilm formation came out at 72%. Regarding `C[C@H](N)[C@H](O)c1cccc(O)c1` [Metaraminol bitartrate], the biofilm formation is 70%. Compound `CCN(CC)CCOC(=O)C(Cc1cccc2ccccc12)CC1CCCO1` (centres undefined) [Nafronyl oxalate] had a biofilm formation of 81%. In turn, `Cc1ccccc1OCC(O)CO` (centres undefined) [Mephenesin] yielded a biofilm formation of 78%. As to `O=C1CN(/N=C/c2ccc([N+](=O)[O-])o2)C(=O)N1` [Nitrofurantoin], the biofilm formation came to 61%. For `Nc1c2c(nc3ccccc13)CCCC2` [Tacrine hydrochloride] the value was 72%.

`CCN(CC)C(=S)SSC(=S)N(CC)CC` [Disulfiram] showed a biofilm formation of 51%. Consider `C/C(=C(\CCOP(=O)(O)O)SC(=O)c1ccccc1)N(C=O)Cc1cnc(C)nc1N` [Benfotiamine], for which the biofilm formation worked out at 70%. Regarding `CC1(C)O[C@@H]2C[C@H]3[C@@H]4CCC5=CC(=O)C=C[C@]5(C)[C@H]4[C@@H](O)C[C@]3(C)[C@]2(C(=O)CO)O1` [Desonide], the biofilm formation was determined as 98%. For `CC[C@H]1OC(=O)C[C@@H](O)[C@H](C)[C@@H](O[C@@H]2O[C@H](C)[C@@H](O[C@H]3C[C@@](C)(O)[C@@H](O)[C@H](C)O3)[C@H](N(C)C)[C@H]2O)[C@@H](CC=O)C[C@@H](C)C(=O)/C=C/C(C)=C/[C@@H]1CO[C@@H]1O[C@H](C)[C@@H](O)[C@@H](OC)[C@H]1OC` [Tylosin] the value was 85%; for `O=C(CCCCCCC(=O)Nc1ccccc1)NO` [Vorinostat], 83%. In the case of `COC(=O)C1=C(C)NC(C)=C(C(=O)OC2CCCN(Cc3ccccc3)C2)C1c1cccc([N+](=O)[O-])c1` (centres undefined) [Benidipine hydrochloride], the biofilm formation was 56%. In the case of `CCNC(=O)CCC/C=C\C[C@@H]1[C@@H](/C=C/[C@@H](O)CCc2ccccc2)[C@H](O)C[C@@H]1O` [Bimatoprost], the biofilm formation was determined as 92%.

Compound `C[C@]12C[C@H](O)[C@H]3[C@@H](CCC4=CC(=O)CC[C@@]43C)[C@@H]1CC[C@@H]2C(=O)CO` [Corticosterone] registered a biofilm formation of 81%.
